Laboratory results from the supplement of paper PMC12595434, “Development of retinoid nuclear receptor pathway antagonists through targeting aldehyde dehydrogenase 1A3” (iScience, 2025).
The list shows a part of the results. Single values of this set are uncertain.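 Tm was set to 64 °C where no melting was found, and many curves are irregular.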

Sequences of proteins named here, by UniProt entry; tags and fusion partners are left off. A change or cut given only in a name is not applied to a line headed by its entry.
UniProt P48380: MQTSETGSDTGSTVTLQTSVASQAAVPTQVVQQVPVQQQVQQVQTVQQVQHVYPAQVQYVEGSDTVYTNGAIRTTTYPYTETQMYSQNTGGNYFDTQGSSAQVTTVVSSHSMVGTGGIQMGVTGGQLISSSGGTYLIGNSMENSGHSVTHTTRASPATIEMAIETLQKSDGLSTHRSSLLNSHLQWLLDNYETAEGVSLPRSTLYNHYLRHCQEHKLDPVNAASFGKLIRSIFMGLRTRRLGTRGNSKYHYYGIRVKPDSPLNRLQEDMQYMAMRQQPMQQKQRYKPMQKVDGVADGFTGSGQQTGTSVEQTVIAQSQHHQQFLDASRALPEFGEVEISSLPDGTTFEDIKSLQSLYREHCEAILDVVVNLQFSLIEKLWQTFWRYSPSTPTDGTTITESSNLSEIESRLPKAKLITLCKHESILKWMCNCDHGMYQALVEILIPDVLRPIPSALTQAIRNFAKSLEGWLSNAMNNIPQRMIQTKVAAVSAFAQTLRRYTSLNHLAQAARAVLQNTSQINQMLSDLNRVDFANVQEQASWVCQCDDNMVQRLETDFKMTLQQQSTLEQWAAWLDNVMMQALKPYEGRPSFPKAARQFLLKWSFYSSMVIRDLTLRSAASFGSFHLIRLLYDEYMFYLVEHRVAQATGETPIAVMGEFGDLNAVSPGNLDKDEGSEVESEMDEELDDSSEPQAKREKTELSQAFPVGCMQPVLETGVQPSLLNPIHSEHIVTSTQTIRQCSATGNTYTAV
UniProt P41250: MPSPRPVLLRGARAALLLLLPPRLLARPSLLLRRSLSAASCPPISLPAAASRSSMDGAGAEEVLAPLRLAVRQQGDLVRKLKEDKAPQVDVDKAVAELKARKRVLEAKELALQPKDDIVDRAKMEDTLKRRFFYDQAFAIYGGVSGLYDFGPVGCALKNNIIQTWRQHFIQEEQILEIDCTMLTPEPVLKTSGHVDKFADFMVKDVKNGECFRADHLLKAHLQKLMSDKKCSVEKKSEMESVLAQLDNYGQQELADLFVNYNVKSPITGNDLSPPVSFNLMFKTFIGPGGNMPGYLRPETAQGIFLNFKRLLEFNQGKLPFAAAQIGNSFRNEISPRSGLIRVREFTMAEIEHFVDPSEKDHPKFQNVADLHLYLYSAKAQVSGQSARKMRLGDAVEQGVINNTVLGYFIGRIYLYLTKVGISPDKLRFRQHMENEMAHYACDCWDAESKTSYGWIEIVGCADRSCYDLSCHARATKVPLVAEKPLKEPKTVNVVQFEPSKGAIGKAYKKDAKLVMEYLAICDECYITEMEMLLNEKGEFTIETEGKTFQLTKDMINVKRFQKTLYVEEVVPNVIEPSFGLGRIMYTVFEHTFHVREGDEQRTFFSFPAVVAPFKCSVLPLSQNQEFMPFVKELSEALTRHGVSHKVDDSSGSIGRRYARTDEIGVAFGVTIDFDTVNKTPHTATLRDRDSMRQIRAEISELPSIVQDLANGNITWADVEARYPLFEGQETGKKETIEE
UniProt P51692: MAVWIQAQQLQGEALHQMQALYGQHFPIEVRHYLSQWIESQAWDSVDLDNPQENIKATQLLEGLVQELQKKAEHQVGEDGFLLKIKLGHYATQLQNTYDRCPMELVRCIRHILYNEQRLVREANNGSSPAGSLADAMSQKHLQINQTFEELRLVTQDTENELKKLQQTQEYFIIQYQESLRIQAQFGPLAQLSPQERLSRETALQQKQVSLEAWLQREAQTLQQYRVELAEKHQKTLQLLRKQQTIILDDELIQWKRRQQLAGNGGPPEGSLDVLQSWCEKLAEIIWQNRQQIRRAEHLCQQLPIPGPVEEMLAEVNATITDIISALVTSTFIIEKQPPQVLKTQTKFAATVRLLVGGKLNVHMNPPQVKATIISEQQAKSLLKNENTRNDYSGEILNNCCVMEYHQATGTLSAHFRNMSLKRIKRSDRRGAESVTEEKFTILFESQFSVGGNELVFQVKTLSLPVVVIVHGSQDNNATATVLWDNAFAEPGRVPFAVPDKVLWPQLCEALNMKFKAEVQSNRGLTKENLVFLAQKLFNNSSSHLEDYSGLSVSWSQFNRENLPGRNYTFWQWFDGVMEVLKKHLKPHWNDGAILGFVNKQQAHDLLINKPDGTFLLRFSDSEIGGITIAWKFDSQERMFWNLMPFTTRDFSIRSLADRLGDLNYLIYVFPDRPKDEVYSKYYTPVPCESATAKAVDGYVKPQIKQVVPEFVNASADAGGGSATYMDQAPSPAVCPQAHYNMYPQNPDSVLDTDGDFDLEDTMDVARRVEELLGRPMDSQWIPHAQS
UniProt P49448: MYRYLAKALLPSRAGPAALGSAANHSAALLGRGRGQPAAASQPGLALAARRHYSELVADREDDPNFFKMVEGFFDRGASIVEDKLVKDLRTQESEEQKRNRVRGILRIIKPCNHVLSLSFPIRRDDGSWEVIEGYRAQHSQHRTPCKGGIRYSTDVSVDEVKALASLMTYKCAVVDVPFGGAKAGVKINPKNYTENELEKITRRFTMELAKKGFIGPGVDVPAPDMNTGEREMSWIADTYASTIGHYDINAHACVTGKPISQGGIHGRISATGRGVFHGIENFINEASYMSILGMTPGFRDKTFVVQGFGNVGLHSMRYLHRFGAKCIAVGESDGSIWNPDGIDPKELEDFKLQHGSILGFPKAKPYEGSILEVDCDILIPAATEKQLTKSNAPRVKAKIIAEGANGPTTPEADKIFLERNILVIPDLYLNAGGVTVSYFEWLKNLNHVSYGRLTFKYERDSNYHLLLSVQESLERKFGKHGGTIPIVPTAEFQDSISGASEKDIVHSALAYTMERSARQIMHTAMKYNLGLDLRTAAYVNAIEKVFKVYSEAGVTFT
UniProt P41223: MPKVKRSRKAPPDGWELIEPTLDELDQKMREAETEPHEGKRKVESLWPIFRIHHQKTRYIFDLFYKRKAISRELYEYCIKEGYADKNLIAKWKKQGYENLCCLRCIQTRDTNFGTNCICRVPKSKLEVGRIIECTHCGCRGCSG
UniProt P49590: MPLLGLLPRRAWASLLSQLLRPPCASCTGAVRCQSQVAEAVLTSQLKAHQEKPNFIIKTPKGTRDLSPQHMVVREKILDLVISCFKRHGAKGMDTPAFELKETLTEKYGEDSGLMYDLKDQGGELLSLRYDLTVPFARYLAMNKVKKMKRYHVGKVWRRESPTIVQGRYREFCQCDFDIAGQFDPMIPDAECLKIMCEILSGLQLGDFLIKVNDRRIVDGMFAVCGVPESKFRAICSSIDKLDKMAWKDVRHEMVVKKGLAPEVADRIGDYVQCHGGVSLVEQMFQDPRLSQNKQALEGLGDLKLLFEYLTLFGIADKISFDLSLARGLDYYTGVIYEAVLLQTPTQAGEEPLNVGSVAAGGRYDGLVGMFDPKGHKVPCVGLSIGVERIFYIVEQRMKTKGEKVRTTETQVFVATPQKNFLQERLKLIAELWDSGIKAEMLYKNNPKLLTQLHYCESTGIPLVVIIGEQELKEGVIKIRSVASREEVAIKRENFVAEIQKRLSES
UniProt P49641: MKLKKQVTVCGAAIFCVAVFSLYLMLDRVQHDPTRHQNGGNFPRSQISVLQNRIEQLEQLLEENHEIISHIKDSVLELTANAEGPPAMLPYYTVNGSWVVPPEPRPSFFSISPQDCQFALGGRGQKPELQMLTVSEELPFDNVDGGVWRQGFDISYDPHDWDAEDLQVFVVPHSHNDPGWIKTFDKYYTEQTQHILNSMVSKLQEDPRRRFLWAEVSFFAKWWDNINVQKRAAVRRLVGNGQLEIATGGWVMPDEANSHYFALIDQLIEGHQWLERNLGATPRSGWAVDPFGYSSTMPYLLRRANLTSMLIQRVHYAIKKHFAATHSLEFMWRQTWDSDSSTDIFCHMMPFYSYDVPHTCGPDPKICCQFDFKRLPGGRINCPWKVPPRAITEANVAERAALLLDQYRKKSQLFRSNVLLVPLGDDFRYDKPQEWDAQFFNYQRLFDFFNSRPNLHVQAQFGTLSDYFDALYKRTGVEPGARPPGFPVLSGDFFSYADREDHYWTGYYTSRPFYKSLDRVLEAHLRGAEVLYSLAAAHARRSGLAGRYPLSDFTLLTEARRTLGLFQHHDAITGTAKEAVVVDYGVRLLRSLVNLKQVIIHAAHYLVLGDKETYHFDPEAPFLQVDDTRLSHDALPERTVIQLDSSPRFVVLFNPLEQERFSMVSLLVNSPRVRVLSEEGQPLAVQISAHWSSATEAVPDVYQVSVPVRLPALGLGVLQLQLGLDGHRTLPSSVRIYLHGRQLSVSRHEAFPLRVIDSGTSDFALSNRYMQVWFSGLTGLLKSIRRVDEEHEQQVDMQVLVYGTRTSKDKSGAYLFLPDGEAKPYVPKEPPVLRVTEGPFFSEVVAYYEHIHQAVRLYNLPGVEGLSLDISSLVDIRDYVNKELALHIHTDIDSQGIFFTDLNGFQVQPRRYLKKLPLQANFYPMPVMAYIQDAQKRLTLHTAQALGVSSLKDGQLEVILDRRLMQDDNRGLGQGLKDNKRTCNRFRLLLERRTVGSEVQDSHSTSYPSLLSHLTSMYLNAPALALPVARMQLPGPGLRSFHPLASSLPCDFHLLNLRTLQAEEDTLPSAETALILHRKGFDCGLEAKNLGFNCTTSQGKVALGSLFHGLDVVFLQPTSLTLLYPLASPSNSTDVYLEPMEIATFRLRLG
UniProt P50148, whole entry: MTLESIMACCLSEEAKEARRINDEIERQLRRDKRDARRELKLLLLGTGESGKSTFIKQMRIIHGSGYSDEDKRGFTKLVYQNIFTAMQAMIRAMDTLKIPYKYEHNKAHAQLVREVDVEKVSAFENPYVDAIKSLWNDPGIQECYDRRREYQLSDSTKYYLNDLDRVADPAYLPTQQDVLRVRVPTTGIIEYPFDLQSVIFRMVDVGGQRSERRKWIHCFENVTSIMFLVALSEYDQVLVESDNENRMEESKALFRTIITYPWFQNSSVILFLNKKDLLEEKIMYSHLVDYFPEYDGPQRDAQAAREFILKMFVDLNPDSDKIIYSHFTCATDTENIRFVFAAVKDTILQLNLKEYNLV
UniProt P43490: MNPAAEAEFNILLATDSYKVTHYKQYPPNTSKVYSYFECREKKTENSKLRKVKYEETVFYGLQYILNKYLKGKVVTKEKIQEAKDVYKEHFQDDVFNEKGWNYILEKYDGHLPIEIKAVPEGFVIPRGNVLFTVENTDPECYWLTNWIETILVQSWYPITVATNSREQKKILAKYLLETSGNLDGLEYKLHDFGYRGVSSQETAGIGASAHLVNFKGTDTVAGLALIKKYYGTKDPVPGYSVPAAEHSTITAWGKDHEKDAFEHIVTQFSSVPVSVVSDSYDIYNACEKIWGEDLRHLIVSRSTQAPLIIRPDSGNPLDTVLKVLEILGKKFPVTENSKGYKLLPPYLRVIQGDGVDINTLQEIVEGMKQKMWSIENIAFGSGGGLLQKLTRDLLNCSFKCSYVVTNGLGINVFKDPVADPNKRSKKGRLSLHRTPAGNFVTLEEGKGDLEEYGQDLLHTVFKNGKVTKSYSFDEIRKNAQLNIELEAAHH
UniProt P48739: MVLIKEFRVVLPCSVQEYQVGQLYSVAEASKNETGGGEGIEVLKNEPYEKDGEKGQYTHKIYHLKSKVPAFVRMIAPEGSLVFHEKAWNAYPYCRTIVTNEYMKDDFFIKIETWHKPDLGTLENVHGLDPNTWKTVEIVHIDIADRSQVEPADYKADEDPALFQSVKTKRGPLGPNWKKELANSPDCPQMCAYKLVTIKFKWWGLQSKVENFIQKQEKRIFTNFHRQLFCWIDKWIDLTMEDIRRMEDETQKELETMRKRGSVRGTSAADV
UniProt P50995, whole entry: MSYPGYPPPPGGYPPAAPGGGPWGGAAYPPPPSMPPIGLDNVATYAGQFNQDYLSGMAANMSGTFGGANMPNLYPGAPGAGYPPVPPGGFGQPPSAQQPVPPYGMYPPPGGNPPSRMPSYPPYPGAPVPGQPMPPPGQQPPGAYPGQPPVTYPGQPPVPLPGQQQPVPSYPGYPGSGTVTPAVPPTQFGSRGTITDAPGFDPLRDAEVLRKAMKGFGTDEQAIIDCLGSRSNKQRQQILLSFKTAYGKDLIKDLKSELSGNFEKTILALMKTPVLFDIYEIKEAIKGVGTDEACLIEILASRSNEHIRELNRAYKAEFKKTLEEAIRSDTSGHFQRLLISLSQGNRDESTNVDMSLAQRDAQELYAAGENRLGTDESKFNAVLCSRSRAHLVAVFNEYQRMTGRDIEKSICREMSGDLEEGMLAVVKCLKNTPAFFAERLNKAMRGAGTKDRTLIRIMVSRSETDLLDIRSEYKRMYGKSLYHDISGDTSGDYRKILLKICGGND
UniProt P43487, whole entry: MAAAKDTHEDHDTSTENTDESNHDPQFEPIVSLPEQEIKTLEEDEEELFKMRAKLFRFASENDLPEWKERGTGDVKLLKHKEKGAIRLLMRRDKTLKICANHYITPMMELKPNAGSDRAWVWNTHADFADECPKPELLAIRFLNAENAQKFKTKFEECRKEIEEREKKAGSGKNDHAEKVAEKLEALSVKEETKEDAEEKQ

Compound: CCc1cnccc1C(=O)Nc1cc2c(cc1F)NC(=O)CC2
Test: melting temperature shift (DMSO Tm minus MBE1-treated Tm) in cellular thermal proteome profiling; higher = less thermal stabilization by MBE1 (negative = stabilized by MBE1)
Conditions: A375

Target: UniProt P50479
- melting temperature shift (MBE1 concentration: 100 nM): -1.13 °C
- melting temperature shift (MBE1 concentration: 1 uM): -0.0916 °C

Target: ACAA2 (UniProt P42765)
- melting temperature shift (MBE1 concentration: 1 uM): -2.17 °C

Target: CARS (UniProt P49589)
- melting temperature shift (MBE1 concentration: 100 nM): -0.443 °C
- melting temperature shift (MBE1 concentration: 1 uM): 0.469 °C

Target: YAP1 (UniProt P46937)
- melting temperature shift (MBE1 concentration: 1 uM): -5.59 °C

Target: PSMD8 (UniProt P48556)
- melting temperature shift (MBE1 concentration: 100 nM): -0.917 °C
- melting temperature shift (MBE1 concentration: 1 uM): 0.543 °C

Target: PSEN1 (UniProt P49768)
- melting temperature shift (MBE1 concentration: 100 nM): 0.201 °C

Target: UniProt P43005
- melting temperature shift (MBE1 concentration: 1 uM): -2.29 °C

Target: ATRX (UniProt P46100)
- melting temperature shift (MBE1 concentration: 100 nM): -0.0705 °C
- melting temperature shift (MBE1 concentration: 1 uM): 0.147 °C

Target: UniProt P42167
- melting temperature shift (MBE1 concentration: 100 nM): -0.657 °C
- melting temperature shift (MBE1 concentration: 1 uM): -1.75 °C

Target: UniProt P48380
- melting temperature shift (MBE1 concentration: 1 uM): -0.837 °C

Target: VPS41 (UniProt P49754)
- melting temperature shift (MBE1 concentration: 100 nM): -0.351 °C
- melting temperature shift (MBE1 concentration: 1 uM): -0.442 °C

Target: CD97 (UniProt P48960)
- melting temperature shift (MBE1 concentration: 1 uM): -1.86 °C

Target: GARS (UniProt P41250)
- melting temperature shift (MBE1 concentration: 100 nM): -1.47 °C
- melting temperature shift (MBE1 concentration: 1 uM): -1.3 °C

Target: KDM5C (UniProt P41229)
- melting temperature shift (MBE1 concentration: 100 nM): -0.858 °C
- melting temperature shift (MBE1 concentration: 1 uM): -0.3 °C

Target: EIF2D (UniProt P41214)
- melting temperature shift (MBE1 concentration: 100 nM): -0.941 °C
- melting temperature shift (MBE1 concentration: 1 uM): -0.122 °C

Target: HSD17B4 (UniProt P51659)
- melting temperature shift (MBE1 concentration: 100 nM): -0.771 °C
- melting temperature shift (MBE1 concentration: 1 uM): 0.496 °C

Target: UniProt P46379
- melting temperature shift (MBE1 concentration: 100 nM): 0.617 °C
- melting temperature shift (MBE1 concentration: 1 uM): 0.128 °C

Target: STAT5B (UniProt P51692)
- melting temperature shift (MBE1 concentration: 100 nM): -0.53 °C
- melting temperature shift (MBE1 concentration: 1 uM): -0.626 °C

Target: UniProt P45983
- melting temperature shift (MBE1 concentration: 100 nM): -1.81 °C
- melting temperature shift (MBE1 concentration: 1 uM): -0.997 °C

Target: UniProt P48730
- melting temperature shift (MBE1 concentration: 100 nM): -0.496 °C

Target: UniProt P49448
- melting temperature shift (MBE1 concentration: 100 nM): 0.0886 °C
- melting temperature shift (MBE1 concentration: 1 uM): -0.591 °C

Target: PRRC2A (UniProt P48634)
- melting temperature shift (MBE1 concentration: 1 uM): -3.27 °C

Target: UniProt P51690
- melting temperature shift (MBE1 concentration: 100 nM): -1.94 °C
- melting temperature shift (MBE1 concentration: 1 uM): -0.372 °C

Target: UniProt P45984
- melting temperature shift (MBE1 concentration: 100 nM): -0.0671 °C
- melting temperature shift (MBE1 concentration: 1 uM): -0.55 °C

Target: STAT1 (UniProt P42224)
- melting temperature shift (MBE1 concentration: 100 nM): -0.359 °C
- melting temperature shift (MBE1 concentration: 1 uM): -0.256 °C

Target: UTRN (UniProt P46939)
- melting temperature shift (MBE1 concentration: 100 nM): -0.731 °C
- melting temperature shift (MBE1 concentration: 1 uM): -0.553 °C

Target: SERPINB8 (UniProt P50452)
- melting temperature shift (MBE1 concentration: 100 nM): -0.684 °C
- melting temperature shift (MBE1 concentration: 1 uM): 0.838 °C

Target: TAGLN2 (UniProt P37802)
- melting temperature shift (MBE1 concentration: 100 nM): -0.397 °C
- melting temperature shift (MBE1 concentration: 1 uM): -0.055 °C

Target: PTPN9 (UniProt P43378)
- melting temperature shift (MBE1 concentration: 100 nM): -0.0518 °C
- melting temperature shift (MBE1 concentration: 1 uM): -0.301 °C

Target: MCAM (UniProt P43121)
- melting temperature shift (MBE1 concentration: 1 uM): -1.85 °C

Target: PHKA2 (UniProt P46019)
- melting temperature shift (MBE1 concentration: 100 nM): 1.17 °C
- melting temperature shift (MBE1 concentration: 1 uM): -0.22 °C

Target: ALDH3B1 (UniProt P43353)
- melting temperature shift (MBE1 concentration: 100 nM): 1.23 °C

Target: BUD31 (UniProt P41223)
- melting temperature shift (MBE1 concentration: 100 nM): 0.318 °C
- melting temperature shift (MBE1 concentration: 1 uM): 0.647 °C

Target: UniProt P42568
- melting temperature shift (MBE1 concentration: 100 nM): 1.62 °C

Target: HSPA13 (UniProt P48723)
- melting temperature shift (MBE1 concentration: 100 nM): -1.58 °C
- melting temperature shift (MBE1 concentration: 1 uM): 0.0045 °C

Target: SLC19A1 (UniProt P41440)
- melting temperature shift (MBE1 concentration: 100 nM): -0.142 °C

Target: CRK (UniProt P46108)
- melting temperature shift (MBE1 concentration: 100 nM): 0.25 °C
- melting temperature shift (MBE1 concentration: 1 uM): -0.397 °C

Target: MRPL19 (UniProt P49406)
- melting temperature shift (MBE1 concentration: 100 nM): 1.84 °C
- melting temperature shift (MBE1 concentration: 1 uM): 1.1 °C

Target: NOP2 (UniProt P46087)
- melting temperature shift (MBE1 concentration: 100 nM): -0.436 °C
- melting temperature shift (MBE1 concentration: 1 uM): -0.0335 °C

Target: HARS2 (UniProt P49590)
- melting temperature shift (MBE1 concentration: 100 nM): -0.262 °C
- melting temperature shift (MBE1 concentration: 1 uM): 0.765 °C

Target: ST13 (UniProt P50502)
- melting temperature shift (MBE1 concentration: 100 nM): -0.511 °C
- melting temperature shift (MBE1 concentration: 1 uM): -0.226 °C

Target: FXR1 (UniProt P51114)
- melting temperature shift (MBE1 concentration: 100 nM): -0.62 °C
- melting temperature shift (MBE1 concentration: 1 uM): -0.212 °C

Target: UniProt P49674
- melting temperature shift (MBE1 concentration: 100 nM): 1.06 °C
- melting temperature shift (MBE1 concentration: 1 uM): 0.8 °C

Target: UniProt P49641
- melting temperature shift (MBE1 concentration: 100 nM): -0.845 °C
- melting temperature shift (MBE1 concentration: 1 uM): 0.711 °C

Target: GCLM (UniProt P48507)
- melting temperature shift (MBE1 concentration: 100 nM): -0.696 °C
- melting temperature shift (MBE1 concentration: 1 uM): -0.35 °C

Target: UniProt P49116
- melting temperature shift (MBE1 concentration: 100 nM): 0.867 °C
- melting temperature shift (MBE1 concentration: 1 uM): -0.0794 °C

Target: IL6ST (UniProt P40189)
- melting temperature shift (MBE1 concentration: 100 nM): -4.6 °C
- melting temperature shift (MBE1 concentration: 1 uM): 0.342 °C

Target: LIG3 (UniProt P49916)
- melting temperature shift (MBE1 concentration: 100 nM): -0.0769 °C
- melting temperature shift (MBE1 concentration: 1 uM): -0.397 °C

Target: GPD2 (UniProt P43304)
- melting temperature shift (MBE1 concentration: 100 nM): -1.24 °C
- melting temperature shift (MBE1 concentration: 1 uM): -1.72 °C

Target: EIF2B2 (UniProt P49770)
- melting temperature shift (MBE1 concentration: 100 nM): -0.107 °C
- melting temperature shift (MBE1 concentration: 1 uM): -0.0469 °C

Target: GNAQ (UniProt P50148)
- melting temperature shift (MBE1 concentration: 100 nM): -1.11 °C
- melting temperature shift (MBE1 concentration: 1 uM): -0.0183 °C

Target: RPL14 (UniProt P50914)
- melting temperature shift (MBE1 concentration: 100 nM): -0.611 °C
- melting temperature shift (MBE1 concentration: 1 uM): 0.885 °C

Target: NNMT (UniProt P40261)
- melting temperature shift (MBE1 concentration: 100 nM): 0.309 °C
- melting temperature shift (MBE1 concentration: 1 uM): 0.154 °C

Target: EIF1AX (UniProt P47813)
- melting temperature shift (MBE1 concentration: 100 nM): -0.501 °C
- melting temperature shift (MBE1 concentration: 1 uM): 0.22 °C

Target: NEDD4 (UniProt P46934)
- melting temperature shift (MBE1 concentration: 100 nM): 0.562 °C
- melting temperature shift (MBE1 concentration: 1 uM): -0.275 °C

Target: AARS (UniProt P49588)
- melting temperature shift (MBE1 concentration: 100 nM): -0.437 °C
- melting temperature shift (MBE1 concentration: 1 uM): 0.464 °C

Target: UniProt P50613
- melting temperature shift (MBE1 concentration: 100 nM): 0.324 °C
- melting temperature shift (MBE1 concentration: 1 uM): 0.508 °C

Target: RANBP2 (UniProt P49792)
- melting temperature shift (MBE1 concentration: 100 nM): -0.327 °C
- melting temperature shift (MBE1 concentration: 1 uM): -0.237 °C

Target: ALDH3A2 (UniProt P51648)
- melting temperature shift (MBE1 concentration: 100 nM): 0.891 °C
- melting temperature shift (MBE1 concentration: 1 uM): 0.58 °C

Target: SKIV2L2 (UniProt P42285)
- melting temperature shift (MBE1 concentration: 100 nM): 0.488 °C
- melting temperature shift (MBE1 concentration: 1 uM): -0.0427 °C

Target: NAMPT (UniProt P43490)
- melting temperature shift (MBE1 concentration: 100 nM): -0.641 °C
- melting temperature shift (MBE1 concentration: 1 uM): -0.104 °C

Target: PITPNB (UniProt P48739)
- melting temperature shift (MBE1 concentration: 100 nM): -0.134 °C
- melting temperature shift (MBE1 concentration: 1 uM): -0.302 °C

Target: FXR2 (UniProt P51116)
- melting temperature shift (MBE1 concentration: 100 nM): -0.828 °C
- melting temperature shift (MBE1 concentration: 1 uM): -0.231 °C

Target: UniProt P49753
- melting temperature shift (MBE1 concentration: 100 nM): 2.03 °C
- melting temperature shift (MBE1 concentration: 1 uM): 0.885 °C

Target: ANXA11 (UniProt P50995)
- melting temperature shift (MBE1 concentration: 100 nM): -0.243 °C
- melting temperature shift (MBE1 concentration: 1 uM): -0.167 °C

Target: RPL21 (UniProt P46778)
- melting temperature shift (MBE1 concentration: 100 nM): -0.598 °C
- melting temperature shift (MBE1 concentration: 1 uM): 0.153 °C

Target: RANBP1 (UniProt P43487)
- melting temperature shift (MBE1 concentration: 100 nM): -0.714 °C
- melting temperature shift (MBE1 concentration: 1 uM): -5.21 °C

Target: KNTC1 (UniProt P50748)
- melting temperature shift (MBE1 concentration: 100 nM): -0.127 °C
- melting temperature shift (MBE1 concentration: 1 uM): -0.136 °C

Target: CENPF (UniProt P49454)
- melting temperature shift (MBE1 concentration: 100 nM): -1.86 °C
- melting temperature shift (MBE1 concentration: 1 uM): -2.61 °C

Target: SMARCA2 (UniProt P51531)
- melting temperature shift (MBE1 concentration: 100 nM): -0.589 °C
- melting temperature shift (MBE1 concentration: 1 uM): -0.596 °C

Target: UniProt P48454
- melting temperature shift (MBE1 concentration: 100 nM): -0.873 °C
- melting temperature shift (MBE1 concentration: 1 uM): 1.98 °C

Target: RPL3 (UniProt P39023)
- melting temperature shift (MBE1 concentration: 100 nM): -0.751 °C
- melting temperature shift (MBE1 concentration: 1 uM): 0.568 °C
